Assay results taken from US20200165354A1 (WUXI BIOLOGICS IRELAND, published 2020).
No constants are given. Whether binding was seen depends on the method and setting. Some results given as binding are weak or reduced against the parent protein; the word gives no strength.

The chains behind the UniProt entries cited, without tags or fusion partners. Where a name states a change or a piece, a line headed by the entry shows the natural chain unless it says otherwise.
UniProt Q8NBP7: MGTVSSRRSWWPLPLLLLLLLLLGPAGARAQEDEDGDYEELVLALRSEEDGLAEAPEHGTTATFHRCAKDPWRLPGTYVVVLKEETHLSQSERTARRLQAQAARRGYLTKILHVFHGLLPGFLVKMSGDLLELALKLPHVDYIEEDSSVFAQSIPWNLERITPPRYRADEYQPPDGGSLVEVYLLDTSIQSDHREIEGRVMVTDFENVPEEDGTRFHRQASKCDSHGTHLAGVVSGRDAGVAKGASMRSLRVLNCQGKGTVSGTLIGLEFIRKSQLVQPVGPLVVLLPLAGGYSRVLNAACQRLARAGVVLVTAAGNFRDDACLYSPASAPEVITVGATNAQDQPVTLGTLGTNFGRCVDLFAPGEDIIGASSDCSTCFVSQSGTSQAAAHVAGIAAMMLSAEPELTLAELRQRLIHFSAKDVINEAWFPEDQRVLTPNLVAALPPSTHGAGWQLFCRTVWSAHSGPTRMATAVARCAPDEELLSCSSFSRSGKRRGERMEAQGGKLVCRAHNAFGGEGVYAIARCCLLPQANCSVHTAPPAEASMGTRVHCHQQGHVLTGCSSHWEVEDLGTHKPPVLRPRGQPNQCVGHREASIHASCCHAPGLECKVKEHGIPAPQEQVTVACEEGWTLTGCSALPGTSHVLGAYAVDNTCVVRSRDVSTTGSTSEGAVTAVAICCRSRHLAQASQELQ

How the values were obtained:
[1] = biological target: human PCSK9 with C-terminal 6-His tag, biotin-labelled (PCSK9-His-biotin) (human) (UniProt Q8NBP7); assay: ELISA binding assay
[2] = biological target: human PCSK9 with C-terminal 6-His tag, biotin-labelled (PCSK9-His-biotin) (human) (UniProt Q8NBP7); assay: ELISA binding and blocking
[3] = biological target: T1, human PCSK9 (construct not stated) (human, UniProt Q8NBP7 31-692, limits assumed); assay: binding ELISA on human PCSK9, A450
[4] = biological target: T1, human PCSK9 (construct not stated); assay: blocking ELISA of the binding of PCSK9 to LDL-R, A450; blocked ligand: LDL-R
[5] = biological target: T1, human PCSK9 (construct not stated); assay: ELISA on biotin-labeled PCSK9 captured on streptavidin, after incubation in human serum at 37 C
[6] = biological target: T1, human PCSK9 (construct not stated); assay: ELISA, biotin-labelled PCSK9 on a streptavidin plate, antibody pre-incubated in human serum at 37 C for 0 or 3 days, goat anti-human-HRP, OD450

Measured: binding

B1: 2.12.12.4-z4-uIgG4k (antibody, V domains shown)
VH: QVQLVQSGAEVKKPGSSVKVSCEASGYTFTNYVMHWVRQAPGQGLEWMGYINPYNDYIKYNEKFKGKATITADKSTSTAYMELSSLRSEDTAVYYCGRQRYYGYRPYYAMDYWGQGTLVTVSS
VL: DIVLTQSPASLAVSPGQRATITCRASESVDGYGNVFMHWYQQKPGQPPKLLIYLASNLESGVPARFSGSGSGTDFTLTINPVEANDTANYYCQQNNKDPWTFGGGTKVEIK
notes: the chains here are derived by undoing them; Human constant region of IgG4 isotype, kappa light chain
binds: all assays above
